From the supplement of paper PMC11098740
The other results are listed elsewhere or left out. Repeats are few or missing, and single values can be far off.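 The assay uses a mixed pool of 41 HAP1 clones in which 61 cancer-associated proteins bear intron-inserted fluorescent tags, and clones are distinguished by image pattern. Results are compared against DMSO-treated control wells, and the BRD4 degrader dBET6 is the positive control.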

Molecular target: BRD4 (intron 10 mScarlet tag, HAP1) (UniProt O60885)
Test: BRD4 median nuclear fluorescence intensity change vs DMSO (log2 fold change); higher = more BRD4 protein
Settings: 6 h

| Structure (SMILES) | BRD4 median nuclear fluorescence intensity change (log2) |
| --- | --- |
| CCN(CCO)CCCC(C)Nc1ccnc2cc(Cl)ccc12 (stereo not drawn) [hydroxychloroquine] (9.99954 µM) | 0.0884 |
| O=C(Nc1ncc([N+](=O)[O-])s1)c1ccccc1O [tizoxanide] (10 µM) | 0.124 |
| O=C1CC2(CCCC2)CC(=O)N1CCCCN1CCN(c2ncccn2)CC1 [buspirone] (10 µM) | 0.0855 |
| COc1cc(N)c(Cl)cc1C(=O)NC1CCNCC1OC (stereo not drawn) [norcisapride] (7.74983 µM) | 0.0343 |
| CN1CC2c3ccccc3Oc3ccc(Cl)cc3C2C1 (stereo not drawn) [asenapine] (10.00077168 µM) | 0.116 |
| Cc1c(OCC(F)(F)F)ccnc1C[S+]([O-])c1nc2ccccc2[nH]1 (stereo not drawn) [lansoprazole] (10 µM) | 0.0697 |
| CC/C(=C(\c1ccccc1)c1ccc(OCCN(C)C)cc1)c1ccccc1 [tamoxifen] (20 µM) | 0.0678 |
| c1ccc([C@H]2CN3CCSC3=N2)cc1 [levamisole] (10 µM) | 0.0514 |
| CN1CCC(=C2c3ccccc3CCc3cccnc32)CC1 [azatadine] (17.993 µM) | 0.143 |
| CCC(c1ccccc1)c1c(O)c2ccccc2oc1=O (stereo not drawn) [phenprocoumon] (10 µM) | 0.0482 |
| O=C(C1CCCCC1)N1CC(=O)N2CCc3ccccc3C2C1 (stereo not drawn) [praziquantel] (9.99966 µM) | 0.097 |
| CC1=Nc2ccc(Cl)cc2S(=O)(=O)N1 [diazoxide] (10 µM) | -0.0197 |
| Cc1nnc(C(=O)NC(C)(C)c2nc(C(=O)NCc3ccc(F)cc3)c(O)c(=O)n2C)o1 [raltegravir] (10 µM) | 0.103 |
